Experimental data published in the supplement of paper PMC11732987, “Enantioselective OTUD7B fragment discovery through chemoproteomics screening and high-throughput optimisation” (Communications Chemistry, 2025).
The list shows a part of the results. The data scatter; read single values as rough.

Chains of the proteins cited; added tags and fusions are not shown. Lines headed by an entry give the natural chain unless they say otherwise; changes in a name come on top.
UniProt O95639, whole entry, looked up: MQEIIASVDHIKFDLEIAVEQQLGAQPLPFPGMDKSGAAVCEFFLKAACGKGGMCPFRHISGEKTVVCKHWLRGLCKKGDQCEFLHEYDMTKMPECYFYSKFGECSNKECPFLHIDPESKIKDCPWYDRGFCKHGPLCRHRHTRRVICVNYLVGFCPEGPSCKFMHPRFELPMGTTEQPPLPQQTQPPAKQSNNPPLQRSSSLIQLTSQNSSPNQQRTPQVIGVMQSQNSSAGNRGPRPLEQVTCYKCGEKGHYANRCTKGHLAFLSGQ
UniProt Q96JB2: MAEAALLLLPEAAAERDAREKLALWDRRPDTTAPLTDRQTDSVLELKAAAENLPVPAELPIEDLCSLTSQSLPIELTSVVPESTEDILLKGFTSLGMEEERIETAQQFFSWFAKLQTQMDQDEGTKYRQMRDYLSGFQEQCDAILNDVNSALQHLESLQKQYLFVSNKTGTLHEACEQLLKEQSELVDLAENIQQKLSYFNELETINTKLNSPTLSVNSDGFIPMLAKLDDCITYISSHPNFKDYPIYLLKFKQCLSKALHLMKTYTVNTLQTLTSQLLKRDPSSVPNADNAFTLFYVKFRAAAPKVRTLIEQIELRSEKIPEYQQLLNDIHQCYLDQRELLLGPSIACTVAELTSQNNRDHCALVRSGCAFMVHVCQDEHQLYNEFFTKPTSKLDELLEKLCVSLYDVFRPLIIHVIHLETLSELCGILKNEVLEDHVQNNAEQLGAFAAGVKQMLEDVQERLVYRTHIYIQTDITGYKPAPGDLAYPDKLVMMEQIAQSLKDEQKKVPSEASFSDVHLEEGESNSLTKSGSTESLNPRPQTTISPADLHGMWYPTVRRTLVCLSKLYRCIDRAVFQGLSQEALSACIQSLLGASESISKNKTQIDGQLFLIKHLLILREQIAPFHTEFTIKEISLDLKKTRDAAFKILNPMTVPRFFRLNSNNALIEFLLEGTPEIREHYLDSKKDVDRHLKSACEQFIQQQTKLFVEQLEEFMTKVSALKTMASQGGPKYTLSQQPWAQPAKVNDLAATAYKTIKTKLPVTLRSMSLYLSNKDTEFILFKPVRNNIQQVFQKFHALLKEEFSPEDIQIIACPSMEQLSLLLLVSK
UniProt Q86VU5: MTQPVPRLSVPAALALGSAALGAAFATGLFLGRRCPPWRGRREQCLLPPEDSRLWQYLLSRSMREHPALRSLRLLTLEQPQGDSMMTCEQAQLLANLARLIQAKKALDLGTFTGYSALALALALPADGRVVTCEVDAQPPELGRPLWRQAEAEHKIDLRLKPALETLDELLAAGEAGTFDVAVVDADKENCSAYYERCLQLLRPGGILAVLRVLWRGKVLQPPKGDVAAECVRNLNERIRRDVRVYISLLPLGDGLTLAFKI
UniProt Q14008: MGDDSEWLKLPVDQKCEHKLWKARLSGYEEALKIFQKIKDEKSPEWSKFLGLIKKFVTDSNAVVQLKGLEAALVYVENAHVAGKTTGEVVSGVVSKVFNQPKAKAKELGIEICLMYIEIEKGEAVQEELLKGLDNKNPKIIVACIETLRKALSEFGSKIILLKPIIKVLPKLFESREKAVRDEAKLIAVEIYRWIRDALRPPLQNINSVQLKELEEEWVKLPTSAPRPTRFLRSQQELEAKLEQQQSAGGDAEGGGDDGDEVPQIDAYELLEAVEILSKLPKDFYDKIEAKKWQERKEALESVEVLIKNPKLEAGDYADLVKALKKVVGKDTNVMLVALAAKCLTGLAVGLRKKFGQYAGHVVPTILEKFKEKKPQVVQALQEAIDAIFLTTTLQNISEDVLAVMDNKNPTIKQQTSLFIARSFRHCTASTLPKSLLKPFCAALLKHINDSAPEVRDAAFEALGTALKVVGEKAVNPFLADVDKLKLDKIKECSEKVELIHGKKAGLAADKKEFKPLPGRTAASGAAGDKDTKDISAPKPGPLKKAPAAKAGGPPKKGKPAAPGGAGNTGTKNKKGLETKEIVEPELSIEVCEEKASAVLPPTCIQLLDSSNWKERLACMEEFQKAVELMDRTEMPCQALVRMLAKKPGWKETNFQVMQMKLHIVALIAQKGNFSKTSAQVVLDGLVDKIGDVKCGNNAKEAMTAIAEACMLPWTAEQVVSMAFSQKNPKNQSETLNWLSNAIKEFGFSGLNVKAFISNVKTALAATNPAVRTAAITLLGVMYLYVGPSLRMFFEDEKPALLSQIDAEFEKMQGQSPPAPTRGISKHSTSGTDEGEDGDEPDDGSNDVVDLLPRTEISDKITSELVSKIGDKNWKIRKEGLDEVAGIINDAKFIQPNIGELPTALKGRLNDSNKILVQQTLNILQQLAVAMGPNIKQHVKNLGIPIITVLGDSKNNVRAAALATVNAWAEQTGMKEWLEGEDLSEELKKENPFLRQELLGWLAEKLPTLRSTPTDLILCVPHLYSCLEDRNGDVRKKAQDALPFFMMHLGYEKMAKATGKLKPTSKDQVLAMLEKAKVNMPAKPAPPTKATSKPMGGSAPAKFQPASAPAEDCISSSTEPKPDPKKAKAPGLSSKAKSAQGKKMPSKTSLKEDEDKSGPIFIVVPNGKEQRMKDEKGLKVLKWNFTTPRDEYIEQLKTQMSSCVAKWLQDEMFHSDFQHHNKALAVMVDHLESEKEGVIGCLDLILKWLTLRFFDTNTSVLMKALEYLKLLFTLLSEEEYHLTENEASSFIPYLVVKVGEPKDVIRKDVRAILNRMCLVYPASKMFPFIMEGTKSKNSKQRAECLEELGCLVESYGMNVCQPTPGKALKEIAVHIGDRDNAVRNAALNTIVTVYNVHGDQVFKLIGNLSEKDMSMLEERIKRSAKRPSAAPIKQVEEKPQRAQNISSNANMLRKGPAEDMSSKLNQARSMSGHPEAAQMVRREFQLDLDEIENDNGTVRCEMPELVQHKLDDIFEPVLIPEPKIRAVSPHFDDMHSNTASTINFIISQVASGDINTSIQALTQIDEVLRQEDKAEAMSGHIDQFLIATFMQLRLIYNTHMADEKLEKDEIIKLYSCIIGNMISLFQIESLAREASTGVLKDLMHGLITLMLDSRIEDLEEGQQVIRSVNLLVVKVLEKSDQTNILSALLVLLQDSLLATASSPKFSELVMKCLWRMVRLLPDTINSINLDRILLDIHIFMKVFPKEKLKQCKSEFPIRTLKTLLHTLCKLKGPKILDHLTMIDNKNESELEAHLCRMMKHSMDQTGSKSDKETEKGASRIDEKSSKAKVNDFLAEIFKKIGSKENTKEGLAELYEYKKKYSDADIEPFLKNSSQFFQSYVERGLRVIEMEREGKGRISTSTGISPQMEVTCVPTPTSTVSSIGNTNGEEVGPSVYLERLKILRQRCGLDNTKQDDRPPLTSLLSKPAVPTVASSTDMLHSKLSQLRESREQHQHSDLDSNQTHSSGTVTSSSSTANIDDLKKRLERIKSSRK
UniProt Q9UBI1: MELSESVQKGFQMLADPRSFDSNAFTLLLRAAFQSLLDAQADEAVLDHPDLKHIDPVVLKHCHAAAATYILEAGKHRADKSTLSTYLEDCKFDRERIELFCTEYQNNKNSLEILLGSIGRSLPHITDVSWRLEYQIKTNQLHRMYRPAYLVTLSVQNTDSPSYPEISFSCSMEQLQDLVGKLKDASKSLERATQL
UniProt O75503: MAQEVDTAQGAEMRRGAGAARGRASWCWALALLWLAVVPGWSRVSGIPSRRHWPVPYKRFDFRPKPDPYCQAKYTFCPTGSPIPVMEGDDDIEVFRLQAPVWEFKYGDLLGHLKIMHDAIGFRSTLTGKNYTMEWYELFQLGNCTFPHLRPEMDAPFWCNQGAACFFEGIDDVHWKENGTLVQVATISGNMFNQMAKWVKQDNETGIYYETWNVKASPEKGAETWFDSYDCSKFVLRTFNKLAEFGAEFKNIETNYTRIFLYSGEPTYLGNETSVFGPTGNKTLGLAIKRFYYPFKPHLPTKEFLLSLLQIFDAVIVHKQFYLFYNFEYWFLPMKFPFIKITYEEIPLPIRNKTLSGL
UniProt P57737: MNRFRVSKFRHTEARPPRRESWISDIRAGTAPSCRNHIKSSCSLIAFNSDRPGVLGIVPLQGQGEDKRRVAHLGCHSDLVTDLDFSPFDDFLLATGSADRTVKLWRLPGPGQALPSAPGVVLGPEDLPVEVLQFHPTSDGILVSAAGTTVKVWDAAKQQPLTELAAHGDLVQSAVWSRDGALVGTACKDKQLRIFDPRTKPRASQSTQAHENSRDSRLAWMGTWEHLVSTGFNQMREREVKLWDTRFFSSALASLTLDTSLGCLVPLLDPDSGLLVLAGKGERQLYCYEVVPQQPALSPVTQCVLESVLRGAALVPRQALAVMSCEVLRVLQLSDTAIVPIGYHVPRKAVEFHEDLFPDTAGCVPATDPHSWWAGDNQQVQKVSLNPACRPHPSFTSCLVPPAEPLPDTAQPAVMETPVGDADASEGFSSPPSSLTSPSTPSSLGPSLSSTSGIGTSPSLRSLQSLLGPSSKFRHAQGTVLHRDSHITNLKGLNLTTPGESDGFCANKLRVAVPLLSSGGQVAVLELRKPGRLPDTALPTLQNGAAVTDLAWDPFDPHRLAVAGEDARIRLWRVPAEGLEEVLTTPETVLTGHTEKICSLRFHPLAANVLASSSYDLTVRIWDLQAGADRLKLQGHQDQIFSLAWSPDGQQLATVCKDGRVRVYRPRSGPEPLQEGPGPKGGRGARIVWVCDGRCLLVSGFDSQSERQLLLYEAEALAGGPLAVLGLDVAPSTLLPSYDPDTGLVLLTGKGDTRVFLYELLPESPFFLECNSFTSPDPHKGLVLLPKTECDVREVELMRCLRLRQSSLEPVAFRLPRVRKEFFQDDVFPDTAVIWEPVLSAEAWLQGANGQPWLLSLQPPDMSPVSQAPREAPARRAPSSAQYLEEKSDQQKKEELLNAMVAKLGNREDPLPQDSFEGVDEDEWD
UniProt P53675: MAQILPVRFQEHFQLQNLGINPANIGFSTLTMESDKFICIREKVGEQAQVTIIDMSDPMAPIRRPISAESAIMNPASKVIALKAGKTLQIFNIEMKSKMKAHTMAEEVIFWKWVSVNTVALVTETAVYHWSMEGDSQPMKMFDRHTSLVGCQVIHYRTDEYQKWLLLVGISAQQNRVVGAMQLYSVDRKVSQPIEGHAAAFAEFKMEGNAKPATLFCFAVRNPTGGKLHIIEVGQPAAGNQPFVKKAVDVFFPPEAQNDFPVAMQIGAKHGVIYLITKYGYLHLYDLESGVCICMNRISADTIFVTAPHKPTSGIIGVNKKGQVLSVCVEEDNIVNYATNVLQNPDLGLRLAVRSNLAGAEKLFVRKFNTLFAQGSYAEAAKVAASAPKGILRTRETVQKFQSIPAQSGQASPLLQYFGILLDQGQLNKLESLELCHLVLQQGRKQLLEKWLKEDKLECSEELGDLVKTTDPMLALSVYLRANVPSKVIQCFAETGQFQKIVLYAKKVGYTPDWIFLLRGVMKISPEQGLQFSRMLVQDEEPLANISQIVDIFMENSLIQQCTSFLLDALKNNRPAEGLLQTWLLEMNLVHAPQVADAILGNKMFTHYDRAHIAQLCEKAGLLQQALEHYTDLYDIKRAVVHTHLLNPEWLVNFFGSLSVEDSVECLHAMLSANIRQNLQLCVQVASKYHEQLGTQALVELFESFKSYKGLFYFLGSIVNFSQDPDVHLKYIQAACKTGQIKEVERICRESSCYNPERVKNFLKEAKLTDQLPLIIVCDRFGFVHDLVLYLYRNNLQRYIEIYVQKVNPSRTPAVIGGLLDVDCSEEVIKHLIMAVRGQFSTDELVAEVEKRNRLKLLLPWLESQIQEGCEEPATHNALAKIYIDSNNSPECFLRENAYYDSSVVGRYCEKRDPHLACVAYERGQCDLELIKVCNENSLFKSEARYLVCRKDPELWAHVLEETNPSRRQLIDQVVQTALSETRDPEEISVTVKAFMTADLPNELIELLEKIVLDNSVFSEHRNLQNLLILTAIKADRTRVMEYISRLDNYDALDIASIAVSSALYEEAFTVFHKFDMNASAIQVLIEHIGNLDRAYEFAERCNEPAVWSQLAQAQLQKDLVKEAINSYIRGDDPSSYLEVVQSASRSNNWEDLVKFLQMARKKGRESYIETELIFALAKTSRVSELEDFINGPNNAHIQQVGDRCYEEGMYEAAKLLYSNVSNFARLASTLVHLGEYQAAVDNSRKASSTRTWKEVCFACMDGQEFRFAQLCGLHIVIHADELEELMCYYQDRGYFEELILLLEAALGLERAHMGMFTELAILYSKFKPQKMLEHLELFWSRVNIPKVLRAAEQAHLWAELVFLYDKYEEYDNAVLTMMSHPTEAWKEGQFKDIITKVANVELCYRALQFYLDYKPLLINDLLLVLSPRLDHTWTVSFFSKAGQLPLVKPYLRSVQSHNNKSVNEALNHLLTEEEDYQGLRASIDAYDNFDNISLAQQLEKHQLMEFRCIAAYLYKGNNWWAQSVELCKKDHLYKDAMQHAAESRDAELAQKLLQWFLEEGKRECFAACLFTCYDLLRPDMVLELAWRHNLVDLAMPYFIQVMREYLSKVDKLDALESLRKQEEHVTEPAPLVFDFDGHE

These targets were tested with ClCC(=O)N[C@H]1CCCc2ccccc12 (assay: log2 mean competition ratio of IA-DTB cysteine labelling (DMSO/compound) (log2 ratio); higher = stronger cysteine engagement by compound). Conditions: 50 µM; treatment time: 4 h; cell line lysate: HEK293T.
Description: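 IA-DTB competitive cysteine chemoproteomics in HEK293T RIPA lysate. Lysates were treated with compound 29 or 30 at 50 or 200 µM for 4 h, then IA-DTB (500 µM, 1 h), trypsin-digested, NeutrAvidin-enriched and analysed by diaPASEF. Competition ratio = intensity DMSO / intensity compound (n=4 treated, n=64 DMSO); binding: mean log2 CR ≥ 1 and p ≤ 0.05 plus QC filters. Target is the cysteine site.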
With CMIP C40 (UniProt Q8IY22) the “log2 mean competition ratio” value was 0.377.
CHD6 C172 (UniProt Q8TD26) was tested, and the “log2 mean competition ratio” value was 0.102.
With CPSF4 C105 (UniProt O95639) the “log2 mean competition ratio” value was -0.0946.
COG3 C564 (UniProt Q96JB2) was tested, and the “log2 mean competition ratio” value was 0.22.
For CNPY3 C206 (UniProt Q9BT09), the “log2 mean competition ratio” value was 0.395.
With COBLL1 C223 (UniProt Q53SF7) the “log2 mean competition ratio” value was -0.293.
With CLMN C438 the “log2 mean competition ratio” value was 0.0316.
In the case of COG5 C173 (UniProt Q9UP83), the “log2 mean competition ratio” value is reported as -0.117.
In the case of COMTD1 C231 (UniProt Q86VU5), the “log2 mean competition ratio” value is reported as 0.421.
With CKAP5 C1317 (UniProt Q14008) the “log2 mean competition ratio” value was -0.00407.
For COMMD3 C90 (UniProt Q9UBI1), the “log2 mean competition ratio” value was -0.309.
With CLN5 C231 (UniProt O75503) the “log2 mean competition ratio” value was -0.0359.
For CNP C158 (UniProt P09543), the “log2 mean competition ratio” value was 0.375.
CIC C1420 was tested, and the “log2 mean competition ratio” value was -0.0734.
For CHEK1 C48 (UniProt O14757), the “log2 mean competition ratio” value was -0.109.
For CORO7 C691 (UniProt P57737), the “log2 mean competition ratio” value was -0.0121.
With COL4A2 C42 (UniProt P08572) the “log2 mean competition ratio” value was 0.178.
With COLEC12 C27 the “log2 mean competition ratio” value was -0.317.
With CLTCL1 C753 (UniProt P53675) the “log2 mean competition ratio” value was -0.114.
In the case of CPSF4 C110 (UniProt O95639), the “log2 mean competition ratio” value is reported as -0.535.

Same assay, conditions: 200 µM; treatment time: 4 h; cell line lysate: HEK293T
For CMIP C40 (UniProt Q8IY22), the “log2 mean competition ratio” value was 0.352.
In the case of CHD6 C172 (UniProt Q8TD26), the “log2 mean competition ratio” value is reported as 0.186.
In the case of CPSF4 C105 (UniProt O95639), the “log2 mean competition ratio” value is reported as -0.139.
For COG3 C564 (UniProt Q96JB2), the “log2 mean competition ratio” value was -0.164.
CNPY3 C206 (UniProt Q9BT09) was tested, and the “log2 mean competition ratio” value was 0.543.
With COBLL1 C223 (UniProt Q53SF7) the “log2 mean competition ratio” value was -0.133.
In the case of CLMN C438, the “log2 mean competition ratio” value is reported as 0.365.
With COG5 C173 (UniProt Q9UP83) the “log2 mean competition ratio” value was -0.263.
COMTD1 C231 (UniProt Q86VU5) was tested, and the “log2 mean competition ratio” value was -0.0533.
In the case of CNTNAP1 C1250, the “log2 mean competition ratio” value is reported as -0.316.
For CKAP5 C1317 (UniProt Q14008), the “log2 mean competition ratio” value was 0.146.
In the case of COMMD3 C90 (UniProt Q9UBI1), the “log2 mean competition ratio” value is reported as -0.175.
For CLN5 C231 (UniProt O75503), the “log2 mean competition ratio” value was 0.135.
For CNP C158 (UniProt P09543), the “log2 mean competition ratio” value was 0.11.
For CIC C1420, the “log2 mean competition ratio” value was -0.0312.
CHEK1 C48 (UniProt O14757) was tested, and the “log2 mean competition ratio” value was -0.0551.
In the case of CORO7 C691 (UniProt P57737), the “log2 mean competition ratio” value is reported as 0.0903.
In the case of COL4A2 C42 (UniProt P08572), the “log2 mean competition ratio” value is reported as 0.201.
For COLEC12 C27, the “log2 mean competition ratio” value was -0.00552.
For CLTCL1 C753 (UniProt P53675), the “log2 mean competition ratio” value was 0.495.
CPSF4 C110 (UniProt O95639) was tested, and the “log2 mean competition ratio” value was -0.351.
